Our source for the binding values is PMC8993893.

Results are given in words; binding and its absence hold for the method and conditions named. In cells and extracts the contact can be indirect. Binding can be weak; no strength is given. Where a sequence is shown, tags or fusion partners need not be part of it.

The target of this assay is FLAG-tagged STUB1 lacking the UBOX domain. Briefly: co-IP; anti-FLAG IP of FLAG-STUB1 variants from lysates of sgSTUB1-expressing HEK293T cells co-transfected with Myc-JAK1 and V5-IFNγ-R1; NP-40 buffer (1% NP40, 150 mM NaCl, 10 mM TrisHCl, pH 7.4); 10 μg IP antibody 2 h at 4 °C, Protein A beads 2 h at 4 °C; immunoblot.

B1: V5-tagged IFNγ-R1 (receptor, UniProt P15260 18-489)
chain: EMGTADLGPSSVPTPTNVTIESYNMNPIVYWEYQIMPQVPVFTVEVKNYGVKNSEWIDACINISHHYCNISDHVGDPSNSLWVRVKARVGQKESAYAKSEEFAVCRDGKIGPPKLDIRKEEKQIMIDIFHPSVFVNGDEQEVDYDPETTCYIRVYNVYVRMNGSEIQYKILTQKEDDCDEIQCQLAIPVSSLNSQYCVSAEGVLHVWGVTTEKSKEVCITIFNSSIKGSLWIPVVAALLLFLVLSLVFICFYIKKINPLKEKSIILPKSLISVVRSATLETKPESKYVSLITSYQPFSLEKEVVCEEPLSPATVPGMHTEDNPGKVEHTEELSSITEVVTTEENIPDVVPGSHLTPIERESSSPLSSNQSEPGSIALNSYHSRNCSESDHSRNGFDTDSSCLESHSSLSDSEFPPNNKGEIKTEGQELITVIKAPTSFGYDKPHVLVDLLVDDSGKESLIGYRPTEDSKEFS
Turning to B1, the binding result is listed as “binds”.
